Measured values taken from the supplement of paper PMC6078165.
Values are relative to the signal before dosing, not to a vehicle control; the signal also falls without drug.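 Fibroblast labels name human fibroblasts: mostly primary ones from tissues such as uterus (C12385, HUF), lung (H6013), bone (Hs27A), adrenal (HADF) and skin (WS1), plus mammary HMF and breast cancer-associated Hs343T. The cancer cells are basal-like or mesenchymal-like triple-negative breast cancer lines. The paper calls a changed response a hit when it shifts by more than 3x the replicate standard deviation. The tissue of the other fibroblasts is not given here.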

Tested on: BT20
Test: relative JC-1 red fluorescence (viability) vs pre-drug, coculture with fibroblast (fraction); higher = more viable cancer cells
Conditions: 100 µM
Description: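 JC-1 labelled TNBC cells cocultured 1:1 (1,500 cells each) with CellTrace Violet stained primary or stromal fibroblasts in 384-well plates in FluoroBrite medium, treated with one of 42 anticancer drugs at 0.1, 1, 10 or 100 uM. JC-1 red fluorescence (mitochondrial integrity in cancer cells only) was read by plate reader every 8 h for 72 h. Values are normalised to each well's pre-drug value. The stock of one drug was tenfold lower, so its dose labels may be too high.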

C=C1C[C@@H]2[C@H](CC[C@]3(C)C(=O)CC[C@@H]23)[C@@]2(C)C=CC(=O)C=C12 [Exemestane]
relative JC-1 red fluorescence
Conditions	8 h	16 h	24 h	32 h	40 h	48 h	56 h	64 h	72 h
coculture fibroblast: C12385	0.906	0.869	0.86	0.825	0.783	0.765	0.745	0.721	0.69
coculture fibroblast: H6013	0.833	0.865	0.828	0.929	0.818	0.823	0.823	0.8281	0.818
coculture fibroblast: H6019	0.8712	0.8321	0.827	0.793	0.764	0.754	0.735	0.7298	0.7227
coculture fibroblast: H6076	0.8192	0.959	0.888	0.858	0.823	0.794	0.769	0.758	0.735
coculture fibroblast: H6231	0.895	0.9145	0.83125	0.777	0.723	0.676	0.635	0.611	0.594
coculture fibroblast: HADF	0.943	0.945	0.878	0.87	0.849	0.8217	0.797	0.7728	0.716
coculture fibroblast: HCFa	0.9391	0.917	0.912	0.886	0.871	0.728	0.71	0.688	0.734
coculture fibroblast: HCPF	0.904	0.839	0.859	0.765	0.753	0.753	0.734	0.688	0.636
coculture fibroblast: HHSteC	0.931	0.918	0.912	0.885	0.851	0.833	0.809	0.775	0.738
coculture fibroblast: HMF	0.908	0.942	0.858	0.7986	0.758	0.692	0.65	0.617	0.564
coculture fibroblast: HPFa	0.919	0.913	0.888	0.773	0.874	0.824	0.773	0.732	0.671
coculture fibroblast: HUF	0.9274	0.877	0.8611	0.787	0.748	0.711	0.69	0.662	0.638
coculture fibroblast: Hs5	0.866	0.908	0.844	0.797	0.757	0.726	0.692	0.664	0.64
coculture fibroblast: Hs27A	0.7308	0.843	0.9462	0.9797	0.95	0.924	0.8921	0.87	0.822
coculture fibroblast: Hs343T	0.789	0.939	0.8606	0.793	0.7496	0.691	0.628	0.59	0.542
coculture fibroblast: WS1	0.837	0.785	0.752	0.699	0.647	0.619	0.584	0.551	0.523
